Measured data: PubChem BioAssay AID1671195 (Yale University, 2021)
Assay: 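Knockdowns that increase or decrease uptake of fluorescent LDL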 (primary screen). Cell system: human Huh7 hepatoma cells. Knock-down reagent: siRNA pool against human genes, 18 nM. Timing: about 2 to 2.5 days of knockdown, then 8 h LDL uptake. Conditions: DiI-labelled LDL at 30 µg/ml for 8 h, in lipoprotein-deficient serum medium. Detection: 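Fluorescent LDL signal imaged in cells, scaled to the plate median, robust z-score for each replicate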. Direction: robust z-score: higher = more LDL uptake after knockdown. Hit rule: 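a gene counts as active if at least two replicate z-scores exceed ±2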.
This is an unselected part of about 22,000 deposited reagents. About 1,510 of all reagents (6.9%) count as active. 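Active includes knockdowns raising or lowering LDL uptake; positive z-scores mean more uptake, negative mean less.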

gene	robust z-score, replicate 1	robust z-score, replicate 2	robust z-score, replicate 3	outcome
MAGIX (MAGI family member, X-linked)	-1.38	-1.62	-1.8	inactive
EXD3 (exonuclease 3'-5' domain containing 3)	-1.14	-1.27	-0.0825	inactive
BBS7 (Bardet-Biedl syndrome 7)	-0.396	0.158	-0.52	inactive
PSMD2 (proteasome 26S subunit ubiquitin receptor, non-ATPase 2)	1.72	1.22	2.39	inactive
UQCR11 (ubiquinol-cytochrome c reductase, complex III subunit XI)	0.885	-0.343	0.413	inactive
GRM1 (glutamate metabotropic receptor 1)	0.48	-0.614	0.73	inactive
RTBDN (retbindin)	1.16	1.49	0.641	inactive
VN1R2 (vomeronasal 1 receptor 2)	-0.634	-1.34	-0.551	inactive
CEACAM5 (CEA cell adhesion molecule 5)	-1.66	-1.63	-0.0103	inactive
TRAPPC8 (trafficking protein particle complex subunit 8)	-0.124	0.00548	0.244	inactive
TNPO2 (transportin 2)	0.27	0.729	-2.48	inactive
LOC400763 (retired record)	1.24	1.6	1.28	inactive
USP1 (ubiquitin specific peptidase 1)	-0.644	-0.839	-0.373	inactive
SLC25A31	-1.72	-1.74	-1.61	inactive
LMO4 (LIM domain only 4)	0.887	1.09	1.13	inactive
LOC441175 (retired record)	1.07	0.985	0.887	inactive
RWDD4 (RWD domain containing 4)	-0.51	-0.517	-0.845	inactive
GUSBP1 (GUSB pseudogene 1)	0.777	0.536	1.02	inactive
UBE2D4 (ubiquitin conjugating enzyme E2 D4)	0.715	-0.495	-1.1	inactive
WDR1 (WD repeat domain 1)	0.695	-0.642	0.933	inactive
GPHB5 (glycoprotein hormone subunit beta 5)	-0.638	0.823	-0.462	inactive
SPOCD1 (SPOC domain containing 1)	-0.285	0.0374	-0.0677	inactive
SERPINF2 (serpin family F member 2)	0.0734	-0.0508	0.567	inactive
TULP3 (TUB like protein 3)	-1.67	-1.63	-1.74	inactive
STING1 (stimulator of interferon response cGAMP interactor 1)	-1.07	-0.978	-1.05	inactive
GYS2 (glycogen synthase 2)	0.76	-0.147	0.966	inactive
IZUMO4 (IZUMO family member 4)	-1.42	-0.417	-0.71	inactive
FURIN (furin, paired basic amino acid cleaving enzyme)	-0.416	0.131	-0.267	inactive

Part of the list above, reformatted:
gene,"robust z-score, replicate 1","robust z-score, replicate 2","robust z-score, replicate 3",outcome
LOC441175 (retired record),1.07,0.985,0.887,inactive
RWDD4 (RWD domain containing 4),-0.51,-0.517,-0.845,inactive
GUSBP1 (GUSB pseudogene 1),0.777,0.536,1.02,inactive
UBE2D4 (ubiquitin conjugating enzyme E2 D4),0.715,-0.495,-1.1,inactive
WDR1 (WD repeat domain 1),0.695,-0.642,0.933,inactive
